Reference: publication doi:10.1101/2020.05.04.076208
No constants are given. Whether binding was seen depends on the method and setting. Binding seen in cells or lysates may run through a third protein. Some binding calls cover weakened binding; strength is not graded here.

Amino acid sequences for entries named in this document (tags omitted).
UniProt Q8R550: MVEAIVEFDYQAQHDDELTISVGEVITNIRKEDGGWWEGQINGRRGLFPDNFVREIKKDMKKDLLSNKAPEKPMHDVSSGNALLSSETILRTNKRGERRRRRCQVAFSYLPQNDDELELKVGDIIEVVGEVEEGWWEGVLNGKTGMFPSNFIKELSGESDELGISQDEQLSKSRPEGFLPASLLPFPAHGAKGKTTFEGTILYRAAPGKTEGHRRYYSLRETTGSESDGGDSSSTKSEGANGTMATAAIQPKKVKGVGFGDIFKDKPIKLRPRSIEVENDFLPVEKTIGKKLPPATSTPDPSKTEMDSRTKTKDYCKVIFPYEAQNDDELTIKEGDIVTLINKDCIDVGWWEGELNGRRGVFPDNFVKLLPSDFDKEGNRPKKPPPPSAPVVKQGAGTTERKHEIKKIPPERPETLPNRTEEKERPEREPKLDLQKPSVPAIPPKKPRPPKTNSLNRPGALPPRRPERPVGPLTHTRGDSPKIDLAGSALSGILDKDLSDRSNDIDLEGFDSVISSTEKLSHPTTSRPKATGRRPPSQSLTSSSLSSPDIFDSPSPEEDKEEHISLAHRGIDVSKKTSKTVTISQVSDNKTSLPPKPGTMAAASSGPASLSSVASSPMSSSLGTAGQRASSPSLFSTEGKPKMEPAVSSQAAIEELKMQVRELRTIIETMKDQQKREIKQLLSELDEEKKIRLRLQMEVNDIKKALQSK

Molecular target: full-length GFP-tagged SH3KBP1 (UniProt Q8R550)
Test: co-IP

B1: Calnexin (protein, UniProt P35564 21-591)
chain: HDGHDDDAIDIEDDLDDVIEEVEDSKSKSDASTPPSPKVTYKAPVPTGEVYFADSFDRGSLSGWILSKAKKDDTDDEIAKYDGKWEVDEMKETKLPGDKGLVLMSRAKHHAISAKLNKPFLFDTKPLIVQYEVNFQNGIECGGAYVKLLSKTAELSLDQFHDKTPYTIMFGPDKCGEDYKLHFIFRHKNPKTGVYEEKHAKRPDADLKTYFTDKKTHLYTLILNPDNSFEILVDQSVVNSGNLLNDMTPPVNPSREIEDPEDRKPEDWDERPKIADPDAVKPDDWDEDAPSKIPDEEATKPEGWLDDEPEYIPDPDAEKPEDWDEDMDGEWEAPQIANPKCESAPGCGVWQRPMIDNPNYKGKWKPPMIDNPNYQGIWKPRKIPNPDFFEDLEPFKMTPFSAIGLELWSMTSDIFFDNFIISGDRRVVDDWANDGWGLKKAADGAAEPGVVLQMLEAAEERPWLWVVYILTVALPVFLVILFCCSGKKQSNAMEYKKTDAPQPDVKDEEGKEEEKNKRDEEEEEEKLEEKQKSDAEEDGVTGSQDEEDSKPKAEEDEILNRSPRNRKPRRE
  binding: binds
